{"source": "patent US11998033B2", "about": "“Sweetening compositions” (PepsiCo, Inc., priority 2016, dated 2024)", "key": {"[1]": {"assay": "Example 7: rebaudioside D and stevioside solubility studies (appearance, turbidity)", "assay_type": "physicochemical", "details": "70 C."}, "[2]": {"assay": "Example 8: effect of temperature on solubility (appearance, turbidity)", "assay_type": "physicochemical", "details": "70° C.", "description": "For the examples below, turbidity is reported in NTUs and was measured at 20±2° C. using a Hach 2100AN Turbidimeter. The instrument was calibrated using a STABLCAL Calibration Kit including samples having turbidities ranging from 0.1 NTU to 7500 NTU. Test samples were measured in a Turbidimeter glass vial and NTU values were read after a 30 second stabilization period.\nAqueous samples containing the amounts of rebaudioside D and stevioside listed in Table 3 were prepared by combining the noted amounts of rebaudioside D and stevioside in water. The samples were then warmed to the temperatures noted in the table.\nThe appearance of all the samples prepared as above was noted and turbidity measurements were taken to track solubility."}}, "note": "At least one structure is not confirmed: it was looked up by name or label, or the drawing left a doubt.", "data": [{"smiles": "C=C1C[C@@]23CC[C@H]4[C@@](C)(CCC[C@@]4(C)C(=O)O[C@@H]4O[C@H](CO)[C@@H](O)[C@H](O)[C@H]4O[C@@H]4O[C@H](CO)[C@@H](O)[C@H](O)[C@H]4O)[C@@H]2CC[C@]1(O[C@@H]1O[C@H](CO)[C@@H](O)[C@H](O[C@@H]2O[C@H](CO)[C@@H](O)[C@H](O)[C@H]2O)[C@H]1O[C@@H]1O[C@H](CO)[C@@H](O)[C@H](O)[C@H]1O)C3", "note": "[rebaudioside D]", "values": [{"measurement": "ratio of stevioside to rebaudioside D required for dissolving", "setting": "[1]; mixture containing 0.4% rebaudioside D", "value": "2:1"}, {"measurement": "ratio of stevioside to rebaudioside D required for dissolving", "setting": "[1]; mixture containing 1.0% rebaudioside D", "value": "4:1"}, {"measurement": "ratio of stevioside to rebaudioside D for complete dissolution", "setting": "[2]; rebaudioside D 1.5%, stevioside 6%", "value": "4:1"}, {"measurement": "ratio of stevioside to rebaudioside D for complete dissolution", "setting": "[2]; rebaudioside D 2.5%, stevioside 30%", "value": "12:1"}]}]}
